# Where “and” joins values, the source holds several entries; their conditions need not be identical. Identical values can stand only once. Counter-ions that a name gives are not always drawn. The list shows a part of the results. This data set is noisy: repeats of one test often differ as much as different tests do.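 HEK293T cells were given each compound shortly before transfection with a reporter in which red mCherry is followed by the SARS-CoV-2 frameshift element and then GFP in the −1 frame, so GFP appears only after frameshifting.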
# Test system: HEK293T
# Assay: percent viability (nuclei count) relative to control; higher = more viable cells
# Conditions: 10 µM; 24 h
row,SMILES,percent viability
1,C[C@H]1O[C@@H](O[C@H]2[C@@H](O)C[C@H](O[C@H]3[C@@H](O)C[C@H](O[C@H]4CC[C@@]5(C)[C@H](CC[C@@H]6[C@@H]5C[C@@H](O)[C@]5(C)[C@@H](C7=CC(=O)OC7)CC[C@]65O)C4)O[C@@H]3C)O[C@@H]2C)C[C@H](O)[C@@H]1O [digoxin],4.02%
2,COC(=O)CCC(=O)CN [Metvixia],271%
3,Nc1nc(/C(=C/CC(=O)O)C(=O)N[C@@H]2C(=O)N3C(C(=O)O)=CCS[C@H]23)cs1,203%
4,O=C1CCCC(=O)C1C(=O)c1ccc(C(F)(F)F)cc1[N+](=O)[O-] [nitisinone],117%
5,CC(=O)N[C@@H](C=O)[C@@H](O)[C@H](O)[C@H](O)CO,175%
6,CC(C)(O)CC(C)(O)c1ccc(Cl)cc1 (stereo unspecified) [fenpentadiol],305%
7,Cc1ccnc(NS(=O)(=O)c2ccc(N)cc2)n1 [sulfamerazine],213%
8,CN1CCC(=C2c3ccccc3CC(=O)c3sccc32)CC1 [ketotifen],229% and 185%
9,CN[C@H](C(=O)N[C@H](C(=O)N(C)[C@H](/C=C(\C)C(=O)O)C(C)C)C(C)(C)C)C(C)(C)c1ccccc1 [taltobulin],14.2%
10,CC1CCCC(C)N1CCCCNC(=O)C(Oc1ccccc1)c1ccccc1 (stereo unspecified) [oxiramide],199%
11,CSCC[C@H](NC(=O)[C@H](Cc1c[nH]c2ccccc12)NC(=O)CNC(=O)[C@@H](NC(=O)[C@H](Cc1ccc(OS(=O)(=O)O)cc1)NC(=O)[C@H](CC(=O)O)NC(=O)[C@H](CCC(N)=O)NC(=O)[C@@H]1CCC(=O)N1)[C@@H](C)O)C(=O)N[C@@H](CC(=O)O)C(=O)N[C@@H](Cc1ccccc1)C(N)=O [ceruletide],202%
12,CC(=O)OCC(=O)[C@@]12OC3(CCCC3)O[C@@H]1C[C@H]1[C@@H]3CCC4=CC(=O)C=C[C@]4(C)[C@@]3(F)[C@@H](O)C[C@@]12C [amcinonide],298% and 131%
13,CC(=O)[C@@]1(C)CC[C@H]2[C@@H]3C=C(C)C4=CC(=O)CC[C@]4(C)[C@H]3CC[C@@]21C [medrogestone],157%
14,CC(C)(C)[C@]1(O)CCN2C[C@H]3c4ccccc4CCc4cccc(c43)[C@@H]2C1 [(+)-Butaclamol·HCl],302%
15,CCN(CC)CCNC(=O)c1cc(Br)c(N)cc1OC [Bromopride],214%
16,Cc1nc2n(c(=O)c1CCN1CCC(c3noc4cc(F)ccc34)CC1)CCCC2O (stereo unspecified) [paliperidone],245% and 193%

row,SMILES,percent viability
1,CCOC(=O)C1=C(C)NC(C)=C(C(=O)OCC)C1c1cccc2nonc12 [darodipine],87.4%
2,NCCCC[C@H](N[C@@H](CCc1ccccc1)C(=O)O)C(=O)N1CCC[C@H]1C(=O)O [lisinopril],146%
3,CN(C)CCN1C(=O)c2ccccc2N(C)c2ccccc21 [dibenzepin],260%
4,CCCC(=O)N1CCCN(c2nc(N)c3cc(OC)c(OC)cc3n2)CC1 [bunazosin],180%
5,Cc1cc(=O)n(-c2ccccc2)n1C,322%
6,COC(=O)[C@H](c1ccccc1Cl)N1CCc2sccc2C1 [clopidogrel],191% and 212%
7,CCC(=O)c1ccc2c(c1)N(CCCN1CCN(CCO)CC1)c1ccccc1S2 [carfenazine],531%
8,CC(C)=CCC/C(C)=C/CC/C(C)=C/C=C/C(C)=C/C(=O)O [peretinoin],248%
9,CC(Oc1c(Cl)cccc1Cl)C1=NCCN1 (stereo unspecified) [Lofexidine·HCl],46.6%
10,COC(=O)[C@@H]1CC2=CC(=O)CC[C@]2(C)[C@@]23O[C@@H]2C[C@@]2(C)[C@@H](CC[C@@]24CCC(=O)O4)[C@H]13 [eplerenone],244%
11,COc1ccc2cc1Oc1cc3c(cc1OC)CC[N+](C)(C)[C@H]3Cc1ccc(cc1)Oc1c(OC)c(OC)cc3c1[C@@H](C2)[N+](C)(C)CC3 [Metubine],171%
12,CN1CCN2c3ccccc3Cc3ccccc3C2C1 (stereo unspecified) [Mianserin·HCl],29.7%
13,CC(=O)[C@H]1CC[C@H]2[C@@H]3CC=C4C[C@@H](OC(=O)CCC(=O)O)CC[C@]4(C)[C@H]3CC[C@]12C,226%
14,CCCCC[C@H](O)/C=C/[C@@H]1[C@@H](C/C=C\CCCC(=O)O)[C@@H](O)C[C@H]1O [Dinoprost Tromethamine],56.2%
15,O=C(CCCCC(=O)Nc1c(I)cc(I)c(C(=O)O)c1I)Nc1c(I)cc(I)c(C(=O)O)c1I,128%

# — the supplement of paper PMC8256030
